Reference: US20240254209A1
No constants are given. Whether binding was seen depends on the method and setting. Some entries that bind do so weakly or less than the wild type. Where a sequence is shown, tags or fusion partners need not be part of it.

Tests used:
[1] = biological target: T1, peanut allergen Ara h 2 (peanut (Arachis hypogaea)) (UniProt Q6PSU2); assay: told in the legend of FIG. 9
T1 sequence (looked up): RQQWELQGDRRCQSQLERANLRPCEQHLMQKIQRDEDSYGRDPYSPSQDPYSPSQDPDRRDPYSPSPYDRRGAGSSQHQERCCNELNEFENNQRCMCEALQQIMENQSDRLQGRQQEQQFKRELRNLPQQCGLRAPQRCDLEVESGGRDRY

[2] = biological target: T1, peanut allergen Ara h 2 (peanut (Arachis hypogaea)); assay: Phadia ImmunoCAP and/or ELISA and Western blot
[3] = biological target: T1, peanut allergen Ara h 2 (peanut (Arachis hypogaea)); assay: allergen specificity as listed in Table D
[4] = biological target: T1, peanut allergen Ara h 2 (peanut (Arachis hypogaea)); assay: specificity told in the text
[5] = biological target: T2, peanut allergen Ara h 6 (peanut (Arachis hypogaea)) (UniProt Q647G9); assay: Phadia ImmunoCAP and/or ELISA and Western blot
T2 sequence (looked up): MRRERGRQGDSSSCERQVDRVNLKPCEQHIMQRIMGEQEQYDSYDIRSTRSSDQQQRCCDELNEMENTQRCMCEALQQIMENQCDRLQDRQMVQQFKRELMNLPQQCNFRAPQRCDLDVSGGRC

[6] = biological target: T1, peanut allergen Ara h 2 (peanut (Arachis hypogaea)); assay: told in the legend of FIG. 6
[7] = biological target: T1, peanut allergen Ara h 2 (peanut (Arachis hypogaea)); assay: antigenic site mapping

B1: human IgE mAb 11F10 (antibody, V domains shown)
VH: EVQLVESGGGLVQPGRSLRLSCAASGFTFDDYTMHWVRQAPGKGLEWVSSIRWNSGNLDYADSVKGRFTISRDNARHSLYLQMNSLRAEDTALYYCVKDNGLRTLDFWGQGTLVTVSS
VL: DIVMTQSPLSLPVTPGEPASISCRSSQSLLHRNGYNYLDWYLQKPGQSPQLLISLASNRASGVPDRFSGSGSGTDFTLKISRVEAEDVGVYYCMQALQTWTFGQGTKVELK
binding [1]: binds | binding [2]: binds | binding [3]: binds

B2: human IgE mAb 15B8 (antibody, V domains shown)
VH: QVQLVESGGRVVQPGESLRLSCETSGFPFHDHGMHWVRQAPGKGLEWVAFIRFDSTSKYTSDSVRGRFSISRDNSKSTLFLQMNNLRREDTAIYYCARDANARFGVMIMAHWGQGTLVTVSS
VL: DIQLTQSPSSLSASVGDRVTITCQASQDIGHYLNWYLQKPGQAPQVLIYDASNLVTGVPSRFSGSGSGTHFTFTISSLQPEDFGTYYCHQHEKLYSISFGQGTRLDIK
binding [2]: binds | binding [3]: binds | binding [4]: binds

B3: human IgE mAb 26C3 (antibody, V domains shown)
VH: QVQLQESGPGLVKPSETLSLTCTVSGGSISSYYWTWIRQPAGKGLEWIGRIFTTGSTNYNPSLKSRVTMSVDTSKNQFSLHLTSVTAADTAVYYCARLRRVVPTAIWHFDLWGRGTRVTVSS
VL: QTVVTQEPSISVSPGGTVTLTCGLSSGAVSTSYFPSWYQQIPGQAPRTLIYGTNTRSSGVPDRFSGSILGNKAALTITGAQADDECDYYCVLYMDSGVMVFGGGTKLTVL
binding [2]: binds | binding [3]: binds

B4: human IgE mAb 9H11 (antibody, V domains shown)
VH: QVQLMESGGGVVQPGGSLRLSCAASGFDFPGYGMHWVRQTPDKGLEWVAYIWYDARSEDYVDSVKGRFTISRDNSNNTLYLKMTDLRPQDTAMYYCAVGAPLEGYWGQGTRVTVSS
VL: DIQMTQSPSSLSASVGDKVTITCRASQNIADYLSWFQQKPGKAPKILIYAASTLQSGVPSRFSGSGSGTHFTLTISSLQPEDFASYFCQQSYTSPTWTFGQGTKVEVK
binding [2]: binds | binding [3]: binds

B5: human IgE mAb 26A5 (antibody, V domains shown)
VH: QVQLVQSGSELRKPGASVKVSCKASGYTFTKYGMNWVRQAPGQGLEWMGWINTNTAKPTYAQDFTGRFVFSLDTSVNTAYLEISGLKAEDTAVYYCATDGSEGSWGQGTLVTVSS
VL: DIQMTQSPSTLSASVGDRVTITCRASQSIGTWLAWHQQKPGTAPKVLIYKASNLKSGVPSRFSGSGSGTDFTLTISSLQPDDVATYYCQQYNTYSGTFGQGTRVEIK
binding [5]: binds

B6: human IgE mAb 32G9 (antibody, V domains shown)
VH: QVQLVQSGPEVRKPGASVRVSCTTSGYTFIDYEMNWVRQAPGQGLEWMGLINPHSGDTGYAQKFQDRVTMTSDTSLSTAYLELSGLTSEDTAVYYCARSQGTFEVYYFVSWGQGSLVTVSS
VL: SYVLTQPPSVSVAPGKTASITCEAKNIVRKRVHWYRQKPGQAPVVVVSDDEDRSSVIPERVSGSKSGDTATLTISRVEAGDEADYYCQVWDSTTDQVVFGGGTKVTVL
binding [2]: binds | binding [3]: binds

B7: human IgE mAb 13D9 (antibody, V domains shown)
VH: QVQLVESGGGLVKPGGSLRLSCVASGFTFSDFYMSWIRQAPGKGLEWVSYMSATGGNIYYADSMKGRLTISRDNTKNSLFLQMNSLRADDTALYYCARRKFGAGSAIFDHWSQGTLVTVSS
VL: SYELTQPPSVSVSPGQTASVTCSGDKLGERYVSWYQQKAGQSPDLVIYQTNQRPSGIPERFSGSDSGNTATLTISGTQGLDEADYYCLTWDRGTPVFGTGTKVTVL
binding [6]: binds | binding [2]: binds | binding [3]: binds | binding [7]: binds

B8: human IgE mAb 5D7 (antibody, V domains shown)
VH: QVQLVQSGSELKKPGASVKVSCEASGYNLTTYAMNWVRQAPGQGLEWMGWINTNTGNPTYAQDFTGHFVFSLDTSVSTAYLQISSLKAEDTAVYYCARDFGERGNCVNGVCYGGYGMDVWGQGTTVTVSS
VL: DIQMTQSPSTLSASVGDRVTITCRASQSISRWLAWYQQKPGKVPKLLIYKASRLEGGVPSRFSGSGSGTEFTLTISSLQPDDFATYYCQEYTNYSGTFGQGTKVEIR
binding [2]: binds | binding [3]: binds

B9: human IgE mAb 16G12 (antibody, V domains shown)
VH: EVQLVESGGGLVKPGGSLKLSCAASGFTFSDYYMYWVRQTPEKRLEWVATISDGGSYTYYPDNVKGRFTISRDNAKNTLYLQMSHLKSEDTAMYYCARDKGPIVPMPMDYWGQGTSVTVSS
VL: SYELTQPLSVSVSPGQTVNITCSGDKLGAKFTCWYQQKPGQSPILVLYQDTKRPPGIPERFSGSNSGNTATLTISGTQAMDEADYYCQAWESGIVAFGGGTKLTVV
binding [2]: binds | binding [3]: binds | binding [4]: binds

B10: IgG blocking mAb 16A8 (isotype-switched variant IgG) (antibody, V domains shown)
VH: QVQLVQSGPDVRKPGATVKVSCQTSGYRFTDYEMNWVRQAPGQGLEWIGLINPHSGDTAYAQKFQGRVTMTSDTSDSTVYLELSGLTPDDTAVYYCARSQGTFEVYYFVSWGQGSLVTVSS
VL: SYVLTQPPSMSVAPGTTASIPCGANNIAKKRVHWYRQKPGQAPVVVVSDDEDRSSVIPDRFSGSKSGDTATLTISRVEAGDEGDYYCQVWDSKTDHVVFGGGTKVTVL
binding [1]: binds

B11: IgG blocking mAb 13D9 (isotype-switched variant IgG) (antibody, V domains shown)
VH: QVQLVESGGGLVKPGGSLRLSCVASGFTFSDFYMSWIRQAPGKGLEWVSYMSATGGNIYYADSMKGRLTISRDNTKNSLFLQMNSLRADDTALYYCARRKFGAGSAIFDHWSQGTLVTVSS
VL: SYELTQPPSVSVSPGQTASVTCSGDKLGERYVSWYQQKAGQSPDLVIYQTNQRPSGIPERFSGSDSGNTATLTISGTQGLDEADYYCLTWDRGTPVFGTGTKVTVL
binding [1]: binds

B12: human IgE mAb 16A8 (antibody, V domains shown)
VH: QVQLVQSGPDVRKPGATVKVSCQTSGYRFTDYEMNWVRQAPGQGLEWIGLINPHSGDTAYAQKFQGRVTMTSDTSDSTVYLELSGLTPDDTAVYYCARSQGTFEVYYFVSWGQGSLVTVSS
VL: SYVLTQPPSMSVAPGTTASIPCGANNIAKKRVHWYRQKPGQAPVVVVSDDEDRSSVIPDRFSGSKSGDTATLTISRVEAGDEGDYYCQVWDSKTDHVVFGGGTKVTVL
binding [2]: binds

B13: human IgE mAb 2F12 (antibody, V domains shown)
VH: QVQLVQSGPEVKKPGASVKVSCQTSGYTFTDYEMNWVRQAPGQGLEWMGLINPHSGDTGYALKFQGRVTMTSDTSKSTVYLELSGLTSEDTAVYYCARSQGTFEVYYFVSWGQGSLVTVSS
VL: SYVLTQPPSVSVAPGKTATITCGANGIGRKRVHWYSQRPGQAPVVVVSDDDDRSSVNPERFSASKSGDTAALTITRVEAGDEADYYCQVWDSRTDQVVFGGGTKVTVL
binding [2]: binds
